From patent US20260158156A1 (priority 2021, published 2026)

Assay: general procedure: solution-phase peptide synthesis; perfluorophenyl active ester, DIPEA
Conditions: coupling step

With “(18S, 59S)-18-((benzyloxy)carbonyl)-59-((S)-2-(4-(2, 5-dioxo-2, 5-dihydro-1H-pyrrol-1-yl)butanamido)propanamido)-3, 16, 21, 37, 53, 60, 63, 66, 69-nonaoxo-1-phenyl-2, 25, 28, 31, 34, 41, 44, 47, 50-nonaoxa-17, 22, 38, 54, 61, 64, 67, 70-octaaza” as the substance, how does the step yield read?
Its step yield is 79%.

With “(S)-methyl 2-((2R, 3R)-3-((S)-1-((3R, 4S, 5S)-4-((S)-2-((tert-butoxycarbonyl)amino)-N, 3-dimethylbutanamido)-3-methoxy-5-methylheptanoyl)pyrrolidin-2-yl)-3-methoxy-2-methylpropanamido)-3-phenylpropanoate” as the substance, how does the step yield read?
The step yield was 77%.

With “(S)-methyl 2-((2R, 3R)-3-((S)-1-((5S, 8S, 11S, 14S, 15R)-14-((S)-sec-butyl)-8, 11-diisopropyl-15-methoxy-5, 7, 13-trimethyl-3, 6, 9, 12-tetraoxo-1-phenyl-2-oxa-4, 7, 10, 13-tetraazaheptadecan-17-oyl)pyrrolidin-2-yl)-3-methoxy-2-methyl propanamido)-3-phenylpropanoate” as the substance, how does the step yield read?
Its step yield is 88% yield.

Which step yield does the source give for “(S)-methyl 2-((2R, 3R)-3-((S)-1-((6S, 9S, 12S, 13R)-12-((S)-sec-butyl)-6, 9-diisopropyl-13-methoxy-2, 2, 5, 11-tetramethyl-4, 7, 10-trioxo-3-oxa-5, 8, 11-triazapentadecan-15-oyl)pyrrolidin-2-yl)-3-methoxy-2-methylpropanamido)-3-phenylpropanoate” here?
Its step yield is 39%.

Same assay, conditions: late stage modification step

Which step yield does the source give for “(S)-2-((2R, 3R)-3-((S)-1-((3R, 4S, 5S)-4-((S)—N, 3-dimethyl-2-((S)-3-methyl-2-(methylamino)butanamido)butanamido)-3-methoxy-5-methylheptanoyl)-pyrrolidin-2-yl)-3-methoxy-2-methylpropanamido)-3-phenylpropanoic acid (MMAF)” here?
The step yield was “˜100%”.

Which step yield does the source give for “(S)-2-((2R, 3R)-3-((S)-1-((6S, 9S, 12S, 13R)-12-((S)-sec-butyl)-6, 9-diisopropyl-13-methoxy-2, 2, 5, 11-tetramethyl-4, 7, 10-trioxo-3-oxa-5, 8, 11-triazapenta-decan-15-oyl)pyrrolidin-2-yl)-3-methoxy-2-methylpropanamido)-3-phenylpropanoic acid” here?
The step yield was 85%.

Which step yield does the source give for “(S)-methyl 2-((2R, 3R)-3-((S)-1-((3R, 4S, 5S)-4-((S)-2-((S)-2-((S)-2-amino-N-methylpropanamido)-3-methylbutanamido)-N, 3-dimethylbutanamido)-3-methoxy-5-methylheptanoyl)pyrrolidin-2-yl)-3-methoxy-2-methylpropanamido)-3-phenylpropanoate” here?
Its step yield is 96% yield.
